According to the supplement of paper PMC10077471:
In all, about 1,900 compounds were measured (“excess over highest single agent (ExcessHSA) synergy score, 6x6 matrix”: median about -83, lowest 2% from about -370 on). The list shows a part of the results.

Each molecule was assayed on NCI-H446 (assay: excess over highest single agent (ExcessHSA) synergy score, 6x6 matrix; higher = less synergy (more negative = stronger synergy)). Conditions: 72 h; CellTiter-Glo viability.

In order of falling “excess over highest single agent” value:
1. Nc1ccc(S(=O)(=O)Nc2ccnn2-c2ccccc2)cc1 + Cc1sc2c(c1C)C(c1ccc(Cl)cc1)=N[C@@H](CC(=O)OC(C)(C)C)c1nnc(C)n1-2 [NCGC00250412-19]  297
2. C[C@@H](N)c1ccc(C(=O)Nc2ccnc3[nH]ccc23)cc1 + Cc1sc2c(c1C)C(c1ccc(Cl)cc1)=N[C@@H](CC(=O)OC(C)(C)C)c1nnc(C)n1-2 [NCGC00250412-19]  125
3. CN1CCN(CCOc2cc(OC3CCOCC3)c3c(Nc4c(Cl)ccc5c4OCO5)ncnc3c2)CC1 + Cc1sc2c(c1C)C(c1ccc(Cl)cc1)=N[C@@H](CC(=O)OC(C)(C)C)c1nnc(C)n1-2 [NCGC00250412-19]  -56.9
4. Cc1cccc(C#Cc2ccccc2)n1 + Cc1sc2c(c1C)C(c1ccc(Cl)cc1)=N[C@@H](CC(=O)OC(C)(C)C)c1nnc(C)n1-2 [NCGC00250412-19]  -114
5. CN(C1CCc2c(c3ccccc3n2CC(=O)O)C1)S(=O)(=O)c1ccc(F)cc1 (stereo not given) + Cc1sc2c(c1C)C(c1ccc(Cl)cc1)=N[C@@H](CC(=O)OC(C)(C)C)c1nnc(C)n1-2 [NCGC00250412-19]  -115
6. CC1=C(CO)C(=O)O[C@@H]([C@@H](C)[C@H]2CC[C@H]3[C@@H]4C[C@H]5O[C@]56[C@@H](O)C=CC(=O)[C@]6(C)[C@H]4CC[C@]23C)C1 + Cc1sc2c(c1C)C(c1ccc(Cl)cc1)=N[C@@H](CC(=O)OC(C)(C)C)c1nnc(C)n1-2 [NCGC00250412-19]  -151
7. O=C(/C=C/c1ccc(CN(CCO)CCc2c[nH]c3ccccc23)cc1)NO + Cc1sc2c(c1C)C(c1ccc(Cl)cc1)=N[C@@H](CC(=O)OC(C)(C)C)c1nnc(C)n1-2 [NCGC00250412-19]  -177
8. CC1Cc2ccccc2N1NC(=O)c1ccc(Cl)c(S(N)(=O)=O)c1 (stereo not given) + Cc1sc2c(c1C)C(c1ccc(Cl)cc1)=N[C@@H](CC(=O)OC(C)(C)C)c1nnc(C)n1-2 [NCGC00250412-19]  -188
9. CC(C)CC(=O)N[C@H](C(=O)N[C@H](C(=O)N[C@@H](CC(C)C)[C@@H](O)CC(=O)N[C@@H](C)C(=O)N[C@@H](CC(C)C)[C@@H](O)CC(=O)O)C(C)C)C(C)C + Cc1sc2c(c1C)C(c1ccc(Cl)cc1)=N[C@@H](CC(=O)OC(C)(C)C)c1nnc(C)n1-2 [NCGC00250412-19]  -213
10. CC[C@@]1([C@@H]2O[C@@H]([C@H]3O[C@@](O)(CO)[C@H](C)C[C@@H]3C)C[C@@H]2C)CC[C@H]([C@]2(C)CC[C@]3(C[C@H](O)[C@@H](C)[C@@H]([C@@H](C)[C@@H](OC)[C@H](C)C(=O)O)O3)O2)O1 + Cc1sc2c(c1C)C(c1ccc(Cl)cc1)=N[C@@H](CC(=O)OC(C)(C)C)c1nnc(C)n1-2 [NCGC00250412-19]  -273
